Experimental data as given in article PMC10296906, “GPCR Binding and JNK3 Activation by Arrestin-3 Have Different Structural Requirements” (Cells, 2023).
No constants are given. Whether binding was seen depends on the method and setting. In cells and extracts the contact can be indirect. Some results given as binding are weak or reduced against the parent protein; the word gives no strength.

Amino acid sequences for entries named in this document (tags omitted). A change or cut given only in a name is not applied to a line headed by its entry. Chains listed by the source or under a name are the forms on record and can include a tag or linker.
UniProt P08172: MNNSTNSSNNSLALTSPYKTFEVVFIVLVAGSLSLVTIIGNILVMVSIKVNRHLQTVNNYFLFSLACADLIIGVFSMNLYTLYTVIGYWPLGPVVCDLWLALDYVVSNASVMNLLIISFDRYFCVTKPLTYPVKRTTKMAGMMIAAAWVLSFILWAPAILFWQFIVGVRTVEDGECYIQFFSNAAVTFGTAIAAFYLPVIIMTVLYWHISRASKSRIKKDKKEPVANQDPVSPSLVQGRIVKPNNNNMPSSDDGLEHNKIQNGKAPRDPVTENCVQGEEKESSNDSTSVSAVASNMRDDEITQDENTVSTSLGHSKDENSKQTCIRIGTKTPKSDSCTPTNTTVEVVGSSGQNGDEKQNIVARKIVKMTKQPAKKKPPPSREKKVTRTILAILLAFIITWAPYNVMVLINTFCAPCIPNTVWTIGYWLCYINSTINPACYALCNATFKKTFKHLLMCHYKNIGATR
SmBiT-tagged arrestin-3 Tr393 + K295A (P32120-2, form named): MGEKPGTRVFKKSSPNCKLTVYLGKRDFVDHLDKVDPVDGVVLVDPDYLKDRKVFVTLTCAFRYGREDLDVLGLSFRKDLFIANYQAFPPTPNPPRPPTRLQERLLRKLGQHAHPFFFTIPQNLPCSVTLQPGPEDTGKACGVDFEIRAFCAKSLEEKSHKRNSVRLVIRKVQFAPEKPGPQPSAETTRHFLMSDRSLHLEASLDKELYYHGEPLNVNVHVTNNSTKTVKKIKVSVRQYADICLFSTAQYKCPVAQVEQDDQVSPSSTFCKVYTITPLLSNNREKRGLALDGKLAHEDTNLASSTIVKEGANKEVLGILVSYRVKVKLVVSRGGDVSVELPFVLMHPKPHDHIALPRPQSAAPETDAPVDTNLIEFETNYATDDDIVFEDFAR
SmBiT-tagged truncated arrestin-3-(1–393) (P32120-2, form named): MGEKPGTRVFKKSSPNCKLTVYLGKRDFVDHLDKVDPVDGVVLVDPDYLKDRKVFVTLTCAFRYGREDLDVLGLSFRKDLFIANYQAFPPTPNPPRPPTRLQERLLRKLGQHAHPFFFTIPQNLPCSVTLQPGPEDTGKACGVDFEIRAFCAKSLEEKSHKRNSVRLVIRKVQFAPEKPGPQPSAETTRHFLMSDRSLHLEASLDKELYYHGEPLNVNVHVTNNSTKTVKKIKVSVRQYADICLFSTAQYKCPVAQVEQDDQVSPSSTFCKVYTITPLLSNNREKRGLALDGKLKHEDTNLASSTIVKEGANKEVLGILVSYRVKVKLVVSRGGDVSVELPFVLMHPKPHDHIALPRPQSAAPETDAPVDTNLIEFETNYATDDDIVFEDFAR
SmBiT-tagged arrestin-3 Tr393 + K295E (P32120-2, form named): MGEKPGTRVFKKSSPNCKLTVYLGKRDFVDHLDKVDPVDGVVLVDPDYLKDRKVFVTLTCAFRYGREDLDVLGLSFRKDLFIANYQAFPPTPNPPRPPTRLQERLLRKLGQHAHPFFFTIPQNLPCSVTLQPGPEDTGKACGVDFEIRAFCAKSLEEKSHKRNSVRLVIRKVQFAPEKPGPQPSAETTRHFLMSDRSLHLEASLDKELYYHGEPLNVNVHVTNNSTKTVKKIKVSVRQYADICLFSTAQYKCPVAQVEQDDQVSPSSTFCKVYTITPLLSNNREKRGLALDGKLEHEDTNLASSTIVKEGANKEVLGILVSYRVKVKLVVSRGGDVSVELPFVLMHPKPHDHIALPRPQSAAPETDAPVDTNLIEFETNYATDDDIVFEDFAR
SmBiT-tagged arrestin-3 truncation mutant Tr389 (P32120-2, form named): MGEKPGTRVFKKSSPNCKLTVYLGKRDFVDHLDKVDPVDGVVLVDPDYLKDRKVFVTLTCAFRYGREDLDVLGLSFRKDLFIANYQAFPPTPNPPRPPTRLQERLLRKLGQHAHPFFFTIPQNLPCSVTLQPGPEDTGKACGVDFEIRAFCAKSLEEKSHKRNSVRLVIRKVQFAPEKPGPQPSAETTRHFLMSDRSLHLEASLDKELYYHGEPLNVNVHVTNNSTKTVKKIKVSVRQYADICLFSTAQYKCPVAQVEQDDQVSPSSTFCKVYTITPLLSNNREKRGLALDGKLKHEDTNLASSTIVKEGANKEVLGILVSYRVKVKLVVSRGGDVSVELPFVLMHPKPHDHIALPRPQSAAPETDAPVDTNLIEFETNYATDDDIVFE
SmBiT-tagged arrestin-3 truncation mutant Tr400 (P32120-2, form named): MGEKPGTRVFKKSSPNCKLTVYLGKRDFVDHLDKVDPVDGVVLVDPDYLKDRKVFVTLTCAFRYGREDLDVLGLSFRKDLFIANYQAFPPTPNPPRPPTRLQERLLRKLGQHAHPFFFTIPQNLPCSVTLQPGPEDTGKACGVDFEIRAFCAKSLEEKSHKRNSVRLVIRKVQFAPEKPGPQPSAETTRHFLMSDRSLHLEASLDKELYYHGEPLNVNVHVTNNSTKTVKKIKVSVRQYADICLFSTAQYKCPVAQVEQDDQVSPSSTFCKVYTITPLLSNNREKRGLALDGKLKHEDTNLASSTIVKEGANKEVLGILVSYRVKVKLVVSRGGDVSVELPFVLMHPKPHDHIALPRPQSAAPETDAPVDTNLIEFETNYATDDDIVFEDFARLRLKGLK

What follows are substances tested against LgBiT-tagged human M2 muscarinic acetylcholine receptor (human) (UniProt P08172) (assay: split reporter; NanoBiT complementation in live HEK293 arrestin-2/3 KO cells: SmBiT-arrestin-3 and receptor-LgBiT co-expressed; luminescence read 20 min with nanoGlo substrate, then agonist added (10 µM isoproterenol for β2AR, 10 µM carbachol for M2R) and read 40 min; signal normalized to the basal signal without agonist).
In the case of “SmBiT-tagged arrestin-3 Tr393 + K295A (from UniProt P32120-2 1-393) (domain or fragment)”, the binding is reported as “binds”.
“SmBiT-tagged truncated arrestin-3-(1–393) (from UniProt P32120-2 1-393) (domain or fragment)” was tested, and the binding was “binds”.
With “SmBiT-tagged arrestin-3 Tr393 + K295E (from UniProt P32120-2 1-393) (domain or fragment)” the binding was “binds”.
With “SmBiT-tagged arrestin-3 truncation mutant Tr389 (from UniProt P32120-2 1-389) (domain or fragment)” the binding was “binds”.
With “SmBiT-tagged arrestin-3 truncation mutant Tr400 (from UniProt P32120-2 1-400) (domain or fragment)” the binding was “binds”.
